Several values for one entry are separate records, joined by “and”; a condition that tells them apart may be missing. Identical values can stand only once.
Tested on: Myeloperoxidase (MPO)
Experiment: Myeloperoxidase (MPO) activity in iris-ciliary body, rabbit paracentesis model
Format: in vivo
Details: individual eyes
Method: Each rabbit was placed in a restraint device and tagged with the alphanumeric code. The formulations were instilled (50 μl) into the conjunctival sac of both eyes 180, 120, 90 and 30 min before the first paracentesis; then 15, 30, 90 min after the first paracentesis. To perform the first paracentesis the animals were anaesthetized by intravenous injection of 5 mg/kg Zoletil® (Virbac; 2.5 mg/kg tiletamine HCl and 2.5 mg/kg zolazepam HCl) and one drop of local anesthetic (Novesina®, Novartis) was administered to the eye. Anterior chamber paracentesis was performed with a 26 G needle attached to a tuberculin syringe; the needle was introduced into the anterior chamber through the cornea, taking care not to damage the tissues. Two hours after the ® first paracentesis, the animals were sacrificed with 0.4 ml Tanax® (Intervet International B.V.) and the second paracentesis was performed. About 100 μl of aqueous humor were removed at the second paracentesis. Aqueous humor was immediately split in four aliquots and stored at −80° C. until analysis. Then both eyes were enucleated and the iris-ciliary body was carefully excised, placed in polypropylene tubes, and stored at −80° C. until analysis.
The activity of MPO was measured as previously described by Williams et al. The iris-ciliary bodies were carefully dried, weighed and immersed in 1 ml of hexa-decyl-trimethyl-ammonium bromide solution. Then, the samples were sonicated for 10 sec on ice by a ultrasound homogenizer (HD 2070, Bandelin electronic), freeze-thawed three times, sonicated for 10 sec and centrifuged at 14,000 g for 10 min to remove cellular debris. An aliquot of the supernatant (40-200 μl) was diluted to 3 ml with the o-dianisidine 2HCl/H2O2 solution. The change in absorbance at 460 nm was continuously monitored for 5 min by a spectrophotometer (UV/Vis Spectrometer Lambda EZ 201; Perkin Elmer). The slope of the line (Δ/min) was determined for each sample and used to calculate the number of units of MPO in the tissue as follows:
were ε=11.3 mM^−1. Values were expressed as units of MPO/g of tissue.
Pupillary diameter, PGE2, protein, PMN, and MPO were expressed as mean±SEM. Statistical analysis was performed using one way ANOVA followed by a Newman-Keuls post hoc test. Clinical score was expressed as % of eyes and the statistical analysis was performed using Kruskal-Wallis followed by a Dunn post hoc test. P<0.05 was considered statistically significant in both cases. Prism 4 software (GraphPad Software, Inc.) was used for the analysis and graphs.

CCOC(=O)O[C@]1(C(=O)OCCl)CC[C@H]2[C@@H]3CCC4=CC(=O)C=C[C@]4(C)[C@H]3[C@@H](O)C[C@@]21C [LE, loteprednol etabonate, reference compound]
Δ/min (mean of the slope of the line recorded every 15 sec for 5 min) (0.5% LE, 200 μl supernatant aliquot diluted to 3 ml): 0.026 and 0.053 and 0.067 and 0.055 and 0.076 and 0.096

Cc1ccc2c(NCC(O)(CC(C)(C)c3cc(F)cc4c3OCC4)C(F)(F)F)cccc2n1 (centres unmarked) [BOL-303242-X]
Δ/min (mean of the slope of the line recorded every 15 sec for 5 min) (0.1% BOL, 100 μl supernatant aliquot diluted to 3 ml, listed as BOL): 0.051 and 0.042 (2×) and 0.045 and 0.050 and 0.031 (2×) and 0.036 | Δ/min (mean of the slope of the line recorded every 15 sec for 5 min) (0.5% BOL, 100 μl supernatant aliquot diluted to 3 ml, listed as BOL): 0.044 and 0.040 and 0.031 and 0.049 and 0.033 and 0.034 and 0.022 and 0.026 | Δ/min (mean of the slope of the line recorded every 15 sec for 5 min) (1% BOL, 100 μl supernatant aliquot diluted to 3 ml, listed as BOL): 0.024 and 0.033 and 0.017 and 0.018 (2×) and 0.016 and 0.052 and 0.013

CC(C(=O)O)c1ccc(-c2ccccc2)c(F)c1 (centres unmarked) [F, flurbiprofen, reference compound]
Δ/min (mean of the slope of the line recorded every 15 sec for 5 min) (0.03% F, 100 μl supernatant aliquot diluted to 3 ml): 0.049 and 0.082 and 0.013 and 0.031 and 0.038 and 0.027 and 0.033 and 0.061

Source: patent publication US20120065228A1, “COMPOSITIONS AND METHODS FOR TREATING, CONTROLLING, REDUCING, OR AMELIORATING OCULAR INFLAMMATORY WITH LOWER RISK OF INCREASED INTRAOCULAR PRESSURE” (priority 2007, published 2012)
